Laboratory results published in publication doi:10.1101/2023.05.10.540045.

The chains behind the UniProt entries cited, without tags or fusion partners.
UniProt Q8WWM9: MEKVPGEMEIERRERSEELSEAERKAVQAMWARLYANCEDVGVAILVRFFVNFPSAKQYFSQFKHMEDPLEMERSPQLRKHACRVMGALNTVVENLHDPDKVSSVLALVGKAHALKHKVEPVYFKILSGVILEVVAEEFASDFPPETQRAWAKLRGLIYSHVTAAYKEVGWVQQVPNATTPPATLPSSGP

What was measured:
[1] = target: hCYGB-tag (wild type human cytoglobin, DYKDDDDK tagged) (human) (UniProt Q8WWM9); assay: affinity purification with mass spectrometry
[2] = target: hCYGB-tag (wild type human cytoglobin, DYKDDDDK tagged) (human) (UniProt Q8WWM9); assay: condition: only cells without hydrogen peroxide treatment

B1: High Mobility Group Box 2 (HMGB2), endogenous in HEK293 (protein, UniProt P26583 1-209)
chain: MGKGDPNKPRGKMSSYAFFVQTCREEHKKKHPDSSVNFAEFSKKCSERWKTMSAKEKSKFEDMAKSDKARYDREMKNYVPPKGDKKGKKKDPNAPKRPPSAFFLFCSEHRPKIKSEHPGLSIGDTAKKLGEMWSEQSAKDKQPYEQKAAKLKEKYEKDIAAYRAKGKSEAGKKGPGRPTGSKKKNEPEDEEEEEEEEDEDEEEEDEDEE
binding [1]: binds | binding [2]: no binding

B2: serine/threonine-protein phosphatase 6 regulatory subunit 1 (PP6R1) (protein, UniProt Q9UPN7 1-881)
chain: MFWKFDLHTSSHLDTLLEREDLSLPELLDEEDVLQECKVVNRKLLDFLLQPPHLQAMVAWVTQEPPDSGEERLRYKYPSVACEILTSDVPQINDALGADESLLNRLYGFLQSTGSLNPLLASFFSKVMGILINRKTDQLVSFLRKKDDFVDLLLQHIGTSAIMDLLLRLLTCVERPQLRQDVVNWLNEEKIVQRLIEQIHPSKDENQHSNASQSLCDIIRLSREQMIQVQDSPEPDQLLATLEKQETIEQLLSNMFEGEQSQSVIVSGIQVLLTLLEPRRPRSESVTVNSFFSSVDGQLELLAQGALESTVSSVGALHALRPRLSCFHQLLLEPPKLEPLQMTWGMLAPPLGNTRLHVVKLLASALSANDAALTHELLALDVPNTMLDLFFHYVFNNFLHAQVEGCVSTMLSLGPPPDSSPETPIQNPVVKHLLQQCRLVERILTSWEENDRVQCAGGPRKGYMGHLTRVAGALVQNTEKGPNAEQLRQLLKELPSEQQEQWEAFVSGPLAETNKKNMVDLVNTHHLHSSSDDEDDRLKEFNFPEEAVLQQAFMDFQMQRMTSAFIDHFGFNDEEFGEQEESVNAPFDKTANITFSLNADDENPNANLLEICYKDRIQQFDDDEEEEDEEEAQGSGESDGEDGAWQGSQLARGARLGQPPGVRSGGSTDSEDEEEEDEEEEEDEEGIGCAARGGATPLSYPSPGPQPPGPSWTATFDPVPTDAPTSPRVSGEEELHTGPPAPQGPLSVPQGLPTQSLASPPARDALQLRSQDPTPPSAPQEATEGSKVTEPSAPCQALVSIGDLQATFHGIRSAPSSSDSATRDPSTSVPASGAHQPPQTTEGEKSPEPLGLPQSQSAQALTPPPIPNGSAPEGPASPGSQ
binding [1]: binds

These are yes or no findings as the source states them, for the method shown. Binding seen in cells or lysates may run through a third protein. A yes stands for co-enrichment or nearness to the bait. Other partners may have been found. For part of these data: No binding means not detected with the bait.
